Results from the M2OR odorant receptor database.
This is a selection; strong and weak results do not stand in their true shares. The calls were merged from several studies; some rest on single wells. This is one part of the list.

What was measured:
Conditions in all cases: stereoisomer not certain
OR10K1 (Homo sapiens) = target: T1, OR10K1 (Homo sapiens) (UniProt Q8NGX5)
T1 sequence (whole entry): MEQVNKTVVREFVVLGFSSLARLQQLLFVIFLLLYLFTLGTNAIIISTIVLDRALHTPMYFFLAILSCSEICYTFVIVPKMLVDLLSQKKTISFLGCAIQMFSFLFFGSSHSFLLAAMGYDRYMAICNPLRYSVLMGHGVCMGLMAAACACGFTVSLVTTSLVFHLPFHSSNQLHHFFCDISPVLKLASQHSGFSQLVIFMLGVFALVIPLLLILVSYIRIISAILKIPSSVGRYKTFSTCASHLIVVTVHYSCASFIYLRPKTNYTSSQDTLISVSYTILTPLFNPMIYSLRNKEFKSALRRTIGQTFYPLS
Outline: (§1)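 Each receptor–molecule pair is labelled responsive or non-responsive (inactive) according to whether the original authors judged the measured signal statistically different from baseline. The data were taken from the main text and supplementary material of published papers and checked for typos and inconsistencies. Assay methods differed by source, with transient luciferase assays in mammalian cell lines being common.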

OR10K2 (Homo sapiens) = target: T2, OR10K2 (Homo sapiens) (UniProt Q6IF99)
T2 sequence (whole entry): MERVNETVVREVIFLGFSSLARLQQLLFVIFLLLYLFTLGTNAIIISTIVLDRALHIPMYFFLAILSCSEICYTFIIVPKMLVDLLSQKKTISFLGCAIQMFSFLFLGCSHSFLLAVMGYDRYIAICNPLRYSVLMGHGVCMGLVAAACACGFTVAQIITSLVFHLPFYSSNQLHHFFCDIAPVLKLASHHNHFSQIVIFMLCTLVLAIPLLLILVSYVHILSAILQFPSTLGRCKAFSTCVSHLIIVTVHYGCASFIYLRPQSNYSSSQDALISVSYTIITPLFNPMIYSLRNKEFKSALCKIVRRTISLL
Outline: as §1

OR10T2 (Homo sapiens) = target: T3, OR10T2 (Homo sapiens) (UniProt Q8NGX3)
T3 sequence (whole entry): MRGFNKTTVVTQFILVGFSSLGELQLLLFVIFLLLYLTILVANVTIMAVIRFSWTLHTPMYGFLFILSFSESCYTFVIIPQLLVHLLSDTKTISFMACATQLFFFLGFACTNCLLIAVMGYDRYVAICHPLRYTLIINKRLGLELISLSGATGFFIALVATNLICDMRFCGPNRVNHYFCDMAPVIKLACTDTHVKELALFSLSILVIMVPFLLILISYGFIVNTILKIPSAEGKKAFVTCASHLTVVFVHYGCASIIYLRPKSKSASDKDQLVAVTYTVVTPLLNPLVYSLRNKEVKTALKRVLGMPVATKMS
Outline: as §1

OR10X1 (Homo sapiens) = target: T4, OR10X1 (Homo sapiens) (UniProt Q8NGY0)
T4 sequence (whole entry): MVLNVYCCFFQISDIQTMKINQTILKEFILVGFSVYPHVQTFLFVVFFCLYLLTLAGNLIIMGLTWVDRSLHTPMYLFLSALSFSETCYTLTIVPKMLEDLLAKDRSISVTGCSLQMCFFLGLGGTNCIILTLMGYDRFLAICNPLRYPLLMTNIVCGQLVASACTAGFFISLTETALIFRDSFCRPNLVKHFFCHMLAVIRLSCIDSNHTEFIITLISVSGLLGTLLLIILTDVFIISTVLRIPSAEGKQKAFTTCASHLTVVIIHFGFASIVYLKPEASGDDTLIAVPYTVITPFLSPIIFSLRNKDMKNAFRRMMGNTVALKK
Outline: as §1

OR10Z1 (Homo sapiens) = target: T5, OR10Z1 (Homo sapiens) (UniProt Q8NGY1)
T5 sequence (whole entry): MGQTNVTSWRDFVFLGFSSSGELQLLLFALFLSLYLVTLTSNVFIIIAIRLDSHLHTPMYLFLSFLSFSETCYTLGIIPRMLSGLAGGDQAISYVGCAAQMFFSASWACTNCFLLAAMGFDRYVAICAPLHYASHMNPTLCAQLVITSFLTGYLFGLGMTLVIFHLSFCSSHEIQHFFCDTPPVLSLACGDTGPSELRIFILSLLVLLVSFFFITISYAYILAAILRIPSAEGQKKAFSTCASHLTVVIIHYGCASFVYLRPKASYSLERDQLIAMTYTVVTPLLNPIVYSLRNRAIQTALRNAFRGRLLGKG
Outline: as §1

OR11A1 (Homo sapiens) = target: T6, OR11A1 (Homo sapiens) (UniProt Q9GZK7)
T6 sequence (whole entry): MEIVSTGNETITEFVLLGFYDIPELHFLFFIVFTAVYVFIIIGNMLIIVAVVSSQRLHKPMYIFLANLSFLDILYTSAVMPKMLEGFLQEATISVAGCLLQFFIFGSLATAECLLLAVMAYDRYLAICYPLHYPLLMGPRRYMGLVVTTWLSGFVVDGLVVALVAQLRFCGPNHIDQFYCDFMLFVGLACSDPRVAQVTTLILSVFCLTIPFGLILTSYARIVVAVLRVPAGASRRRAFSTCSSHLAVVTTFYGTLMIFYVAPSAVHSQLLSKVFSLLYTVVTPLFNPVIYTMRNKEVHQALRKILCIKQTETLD
Outline: as §1

OR11H4 (Homo sapiens) = target: T7, OR11H4 (Homo sapiens) (UniProt Q8NGC9)
T7 sequence (whole entry): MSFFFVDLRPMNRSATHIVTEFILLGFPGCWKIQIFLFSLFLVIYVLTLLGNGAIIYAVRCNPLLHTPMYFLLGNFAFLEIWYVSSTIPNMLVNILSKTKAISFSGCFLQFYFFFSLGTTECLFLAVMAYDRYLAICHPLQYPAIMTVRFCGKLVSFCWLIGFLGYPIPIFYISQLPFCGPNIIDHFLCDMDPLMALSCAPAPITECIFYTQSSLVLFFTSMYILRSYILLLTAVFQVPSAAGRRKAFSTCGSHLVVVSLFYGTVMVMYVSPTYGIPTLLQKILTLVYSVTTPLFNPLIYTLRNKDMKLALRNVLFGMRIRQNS
Outline: as §1

OR11H6 (Homo sapiens) = target: T8, OR11H6 (Homo sapiens) (UniProt Q8NGC7)
T8 sequence (whole entry): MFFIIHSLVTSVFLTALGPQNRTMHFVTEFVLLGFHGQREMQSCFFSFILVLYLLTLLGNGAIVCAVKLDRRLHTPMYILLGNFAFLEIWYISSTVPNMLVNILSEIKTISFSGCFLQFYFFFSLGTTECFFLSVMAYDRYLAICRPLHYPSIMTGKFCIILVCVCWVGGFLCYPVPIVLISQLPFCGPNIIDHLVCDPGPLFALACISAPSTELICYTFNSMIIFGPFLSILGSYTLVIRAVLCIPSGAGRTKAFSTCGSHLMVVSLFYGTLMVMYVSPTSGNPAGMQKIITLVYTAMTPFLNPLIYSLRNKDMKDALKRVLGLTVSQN
Outline: as §1

OR12D2 (Homo sapiens) = target: T9, OR12D2 (Homo sapiens) (UniProt P58182)
T9 sequence (whole entry): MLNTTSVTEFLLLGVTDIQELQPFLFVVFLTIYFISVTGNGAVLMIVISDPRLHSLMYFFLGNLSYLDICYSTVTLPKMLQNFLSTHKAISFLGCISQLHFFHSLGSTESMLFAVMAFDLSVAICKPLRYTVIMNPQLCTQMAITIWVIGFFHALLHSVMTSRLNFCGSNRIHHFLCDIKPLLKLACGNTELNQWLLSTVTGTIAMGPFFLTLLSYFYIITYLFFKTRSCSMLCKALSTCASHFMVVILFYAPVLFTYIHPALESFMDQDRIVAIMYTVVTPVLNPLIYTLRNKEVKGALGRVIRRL
Outline: as §1

OR12D3 (Homo sapiens) = target: T10, OR12D3 (Homo sapiens) (UniProt Q9UGF7)
T10 sequence (whole entry): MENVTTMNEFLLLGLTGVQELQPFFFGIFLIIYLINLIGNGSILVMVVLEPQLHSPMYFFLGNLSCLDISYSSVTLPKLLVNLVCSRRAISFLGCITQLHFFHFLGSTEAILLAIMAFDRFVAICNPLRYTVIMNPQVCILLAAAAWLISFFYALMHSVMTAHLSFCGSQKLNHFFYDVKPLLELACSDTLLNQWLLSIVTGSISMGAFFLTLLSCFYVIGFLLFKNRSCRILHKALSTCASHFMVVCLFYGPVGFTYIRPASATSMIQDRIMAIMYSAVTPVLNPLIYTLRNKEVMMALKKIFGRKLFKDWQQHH
Outline: as §1

OR13A1 (Homo sapiens) = target: T11, OR13A1 (Homo sapiens) (UniProt Q8NGR1)
T11 sequence (whole entry): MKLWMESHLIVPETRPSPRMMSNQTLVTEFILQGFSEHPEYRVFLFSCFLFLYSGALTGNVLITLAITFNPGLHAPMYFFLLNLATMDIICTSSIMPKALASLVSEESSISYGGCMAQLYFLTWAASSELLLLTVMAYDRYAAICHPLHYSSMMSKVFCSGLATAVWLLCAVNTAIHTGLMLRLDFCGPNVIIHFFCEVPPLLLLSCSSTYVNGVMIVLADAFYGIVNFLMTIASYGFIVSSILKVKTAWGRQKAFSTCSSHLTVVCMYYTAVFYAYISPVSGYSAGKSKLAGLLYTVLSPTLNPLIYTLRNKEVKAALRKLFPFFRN
Outline: as §1

OR10S1 (Homo sapiens) = target: T12, OR10S1 (Homo sapiens) (UniProt Q8NGN2)
T12 sequence (whole entry): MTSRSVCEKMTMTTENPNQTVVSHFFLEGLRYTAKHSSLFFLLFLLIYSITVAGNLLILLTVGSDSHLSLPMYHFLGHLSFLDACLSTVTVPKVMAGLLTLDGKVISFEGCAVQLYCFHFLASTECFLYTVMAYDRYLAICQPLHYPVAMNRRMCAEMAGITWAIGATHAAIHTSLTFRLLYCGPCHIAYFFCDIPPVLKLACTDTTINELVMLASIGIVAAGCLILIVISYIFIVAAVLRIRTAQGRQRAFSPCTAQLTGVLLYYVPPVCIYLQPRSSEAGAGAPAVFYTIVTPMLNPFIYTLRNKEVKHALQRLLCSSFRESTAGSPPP
Outline: as §1

Measured: odorant receptor agonist call

O=C1CCCCCCCCCCCC(=O)OCCO1
not listed: OR10S1 (Homo sapiens)
inactive: all other assays above

CCCCCC(=O)O
not listed: OR10S1 (Homo sapiens)
inactive: all other assays above

CCCCCCCOC(C)=O
not listed: OR10S1 (Homo sapiens)
inactive: all other assays above

CCCCCC(C)=O
not listed: OR10S1 (Homo sapiens)
inactive: all other assays above

CCCCO
inactive: all assays above

CCCC(=O)O
inactive: all assays above
